Source: the supplement of paper PMC5949888
Most values lie at the floor of the assay. Slopes are relative: functional sequences can read slightly below zero.

These substances were tested on Saccharomyces cerevisiae PS128 hsf1 delta, HSF1(1-493) fusion (assay: growth estimate (transactivation domain function in HSF1 fusion, heat-shock survival) (a.u. (slope of normalised read count over time)); higher = stronger growth at 37°C, i.e. more transactivation activity). Conditions: library: random library.
Description: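 Random 60-nt DNA library encoding peptides of up to 20 aa, fused to the C-terminus of yeast HSF1 residues 1-493 (C-terminal TAD deleted) and expressed from the native HSF1 promoter on a CEN plasmid in hsf1-deleted S. cerevisiae PS128. Cells were selected at 37°C on -trp 5-FOA plates for 0, 2, 4, 6 and 8 days and amplicons were sequenced. Growth estimate is the slope of a robust linear fit of total-sum-normalised read counts (normalised to the first time point) over time, using at least 2 replicates. Sequences are classed functional (TAD activity) above a threshold of -0.13, set from stop-codon control sequences.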

Substance	growth estimate
LGP	< -0.25
SSE	< -0.25
SWSRFKS	< -0.25
LRRKSIKRGPGLIWSRYHGL	-0.246
RIPSARLR	< -0.25
SVWARNAWRRAGVFTRALDR	< -0.25
PPGLAES	< -0.25
DIQLHVGICWLHGPILTCTL	< -0.25
LGVLTLSTPIFGFPNTKLQG	< -0.25
SGGRFPPKDTIEMSSSGTAS	< -0.25
RRSRVNAPERIRLV	< -0.25
WRGMGVLRAELFAN	< -0.25
SFSACMQYRWGLSNVMSAHR	-0.243
QFPRAEGDAARKDTRLVKSR	< -0.25
RYLFEDHGQREVHGFGTWRG	< -0.25
LHARLCQAGEVNVCLFIKSY	< -0.25
PRRTLVGPYRETWRSLSVVA	< -0.25
FTDVLFFGGRTKATYHPSAK	< -0.25
YLPFWTARGV	< -0.25
LMDCLNVTRVARS	< -0.25
IENDCL	< -0.25
QLRGFCPDKTLEGYRVKVGD	< -0.25
NPGERSDARRSQLPIRYSRH	< -0.25
TLAVGNRRGGLCMTILRS	< -0.25

Substance	growth estimate
FGCIIPFGAILSFRLRLSAG	< -0.25
WSNRNTTMLRVIIVGSTRGN	< -0.25
CFRNILLG	< -0.25
VGAVETLRSR	< -0.25
PIALNPSTPTRVEGVQLQSG	< -0.25
LNESAT	< -0.25
RALSYYHSYALRTTNDTSKR	< -0.25
GSVFST	< -0.25
NERERALYGEKETSILAGEV	< -0.25
ESATASHSQ	< -0.25
FLCRLTVPVYKALPSGLLPG	< -0.25
SEGGSEV	< -0.25
SNTHPVRERIWASVARWHFR	< -0.25
LQLAGKLRIVDGGLHFDGKS	< -0.25
ARSLPSGSSRADRWTSEFRL	< -0.25
GLGAPR	< -0.25
TSH	< -0.25
LSTQQNIPDQEGYHSHGFCR	< -0.25
CGSIYSDGKAPSDEDLCTAG	< -0.25
EPFRLKPLGRSFMFRVDQSS	< -0.25
RQEKHGSSRREWRILRDKAK	< -0.25
PERAVQGNVQLRQTNANDLY	< -0.25
LSLASSLMV	< -0.25
VHPPCTPPSYTWLLGFCVQA	< -0.25

Copied from the list:
Entry for RALSYYHSYALRTTNDTSKR under growth estimate: < -0.25
Entry for GSVFST under growth estimate: < -0.25
Entry for SEGGSEV under growth estimate: < -0.25

Some of the entries so far, field by field.
TSH
  growth estimate = < -0.25
LSTQQNIPDQEGYHSHGFCR
  growth estimate = < -0.25
CGSIYSDGKAPSDEDLCTAG
  growth estimate = < -0.25

Next part.

Substance	growth estimate
ARVDIVGFTSLL	< -0.25
QYRASRVFKEHQTAVWGRPF	< -0.25
TINRRGVLNLPCGMSVRTNS	< -0.25
FVIQLLGSFRALINWYFLGR	< -0.25
GILRSFLSKAILGGLIWVGS	< -0.25
NRKCRGSFTCNRSAPSLTPR	< -0.25
RMSLVILAQTTGT	< -0.25
RSSRERAPE	< -0.25
GFHRRGTGRATARIRLSNQP	< -0.25
QCQRSGLEWSDGR	< -0.25
RSFLQITSCLAPLRHLEEGV	< -0.25
LQVDGS	< -0.25
VYAELDRNFPTVYPI	< -0.25
GTAVW	< -0.25
GACEVGSEQILGTPGCAKEP	< -0.25
TVLQQDIVLYVFEHSTKPQG	< -0.25
GLGSLSMLTTDSRCRMRGRK	-0.245
AHRGP	< -0.25
FIGL	< -0.25
RHRSGVTEALISDVPRGPGP	< -0.25
MHIRFMDRRDYVELCNRGVY	< -0.25
LGNSLFGYYQVRGPMVQVIV	< -0.25
AIGRLAPP	< -0.25
SQLCTTAQMKCSAVTFFGIP	< -0.25

Substance	growth estimate
VSDPSPEGRKRFQLVKKPVS	< -0.25
NRTMAQLV	< -0.25
GKPVRPVLHPAGGRGVS	-0.243
ATSATIV	< -0.25
GQARPQPTCCFRG	< -0.25
EGMG	< -0.25
RTEKWDRRTR	< -0.25
RSEVCAASRRETRVLATWPI	< -0.25
LTTMGYGFGTAEKIGLPRRG	< -0.25
TRSIDAWTLL	< -0.25
KSFVKTHGVCDCYISS	< -0.25
CSRSPSVLGHAGRAEKLEIG	-0.24
ARATYKVSIGDRLGNSLRIV	< -0.25
IRFKMQIGAR	< -0.25
RFDWP	-0.245
RTCGSVQG	< -0.25
MGSEEIPPQIGNVH	< -0.25
LGVRLVSAGARQMDFALGHT	< -0.25
GKICLGNGPNEQELRAWLMH	< -0.25
SFWDASSTFRRCIHS	< -0.25
PKHAVTRCIEYC	-0.243
SAVLL	< -0.25
LIATDNLFGVCFLTD	< -0.25
SIKLPSRPL	< -0.25

Substance	growth estimate
PQCGLTLSF	< -0.25
LPQQCKRFANSFGRRGSSSA	< -0.25
FSGVQETLKVETKYAW	< -0.25
SVLNRGSVKDLF	< -0.25
FGQGKRSSLRNDARRGTLCP	< -0.25
SPPAQPIQ	< -0.25
DMPLGQDFNAGVYTGV	< -0.25
VWIVHECLRP	-0.245
GKVKEGFNLCLCVTEDIVSN	-0.243
ADP	< -0.25
GLMKESPSLAPEFHCEHNFP	< -0.25
QLENHDLGSSALGFLGPART	< -0.25
AFALLQRVRSSTHAS	< -0.25
REHMAGDAVEIFGHTTGSIP	< -0.25
GAEMVNVQK	-0.246
SATTYLW	< -0.25
GQLSRPYIAAQVPGKTWGPM	< -0.25
EGRKHSISACFK	< -0.25
YGCTSLESRG	-0.206
APRKPAQVDLMGDSFFTGHR	< -0.25
RPA	< -0.25
LASETVRWRCF	< -0.25
SEFQTSHKLDSVRLRH	< -0.25
DDKGPTIHVSSAISLNIR	< -0.25

Substance	growth estimate
EPIVNNPIPLSATCKTYDAC	< -0.25
CYRDENEPGS	< -0.25
KRKTGFL	< -0.25
HMQPRTGSPNVFEFRLRLVC	< -0.25
GLEERDQAFFEARRDGGVRS	< -0.25
GNIGMTWMVLGMPICHKLPL	< -0.25
YLRIAL	< -0.25
FPGPLGWFFEVSGNYLESCS	< -0.25
IKPGCQSLQIGRNSFERDWP	< -0.25
TLQHTEEGDVAVNVEHLAGY	< -0.25
RPYLGGHYRDRAE	< -0.25
NQVKLTLVRPLIDQETWTRN	< -0.25
FNVASGNAI	< -0.25
GPIGFDGG	< -0.25
VIGILTSGYGH	< -0.25
LYDPGTTGRACQQHHVEASH	< -0.25
NYWIRVIMADHGSQDRALEH	< -0.25
ARMPE	< -0.25
PFCARLGRISWVTPC	< -0.25
SIKRSAVVLVTAPVYSRTAP	< -0.25
SLLPTQ	< -0.25
GGVRRSTDHINDNQWEHLNP	< -0.25
GKRGKIC	< -0.25
VYAHHFDSNIWPGQKLLGAC	< -0.25
